The values that follow come from the supplement of paper PMC10849652.

Chains of the proteins cited; added tags and fusions are not shown. Lines headed by an entry give the natural chain unless they say otherwise; changes in a name come on top.
UniProt Q4LE39: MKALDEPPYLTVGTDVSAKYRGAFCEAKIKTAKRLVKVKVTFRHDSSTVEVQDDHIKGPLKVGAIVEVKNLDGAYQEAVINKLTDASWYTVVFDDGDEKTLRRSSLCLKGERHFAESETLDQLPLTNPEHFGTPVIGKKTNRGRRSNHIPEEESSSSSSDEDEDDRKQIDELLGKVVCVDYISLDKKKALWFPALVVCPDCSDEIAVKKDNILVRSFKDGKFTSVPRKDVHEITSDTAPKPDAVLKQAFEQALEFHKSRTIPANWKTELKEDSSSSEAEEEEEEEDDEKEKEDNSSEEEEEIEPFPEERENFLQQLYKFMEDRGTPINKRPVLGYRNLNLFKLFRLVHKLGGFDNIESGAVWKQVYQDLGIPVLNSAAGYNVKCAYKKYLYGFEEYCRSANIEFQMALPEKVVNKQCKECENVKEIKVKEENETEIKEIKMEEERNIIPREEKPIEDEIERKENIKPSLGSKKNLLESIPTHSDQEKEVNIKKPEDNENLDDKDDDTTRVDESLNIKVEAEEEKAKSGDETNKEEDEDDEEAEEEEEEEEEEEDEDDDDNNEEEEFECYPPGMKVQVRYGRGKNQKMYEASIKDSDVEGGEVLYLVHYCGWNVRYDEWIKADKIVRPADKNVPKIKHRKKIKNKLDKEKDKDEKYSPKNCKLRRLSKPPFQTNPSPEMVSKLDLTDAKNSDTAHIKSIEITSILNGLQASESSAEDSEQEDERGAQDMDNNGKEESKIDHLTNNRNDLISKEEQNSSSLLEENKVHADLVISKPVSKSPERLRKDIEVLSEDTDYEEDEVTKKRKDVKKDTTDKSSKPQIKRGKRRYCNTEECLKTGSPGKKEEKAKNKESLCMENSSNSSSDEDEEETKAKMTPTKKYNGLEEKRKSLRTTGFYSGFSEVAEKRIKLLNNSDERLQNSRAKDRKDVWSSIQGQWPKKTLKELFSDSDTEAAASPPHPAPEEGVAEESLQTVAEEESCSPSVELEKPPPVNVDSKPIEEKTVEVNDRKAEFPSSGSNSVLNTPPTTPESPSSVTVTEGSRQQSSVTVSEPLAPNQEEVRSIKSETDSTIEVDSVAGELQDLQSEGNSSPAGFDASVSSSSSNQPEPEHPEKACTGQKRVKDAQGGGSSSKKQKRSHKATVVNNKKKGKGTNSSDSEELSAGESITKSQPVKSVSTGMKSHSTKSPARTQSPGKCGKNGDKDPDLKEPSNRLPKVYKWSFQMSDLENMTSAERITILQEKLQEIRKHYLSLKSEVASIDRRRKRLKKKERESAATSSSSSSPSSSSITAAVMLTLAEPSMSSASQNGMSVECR
UniProt P10398: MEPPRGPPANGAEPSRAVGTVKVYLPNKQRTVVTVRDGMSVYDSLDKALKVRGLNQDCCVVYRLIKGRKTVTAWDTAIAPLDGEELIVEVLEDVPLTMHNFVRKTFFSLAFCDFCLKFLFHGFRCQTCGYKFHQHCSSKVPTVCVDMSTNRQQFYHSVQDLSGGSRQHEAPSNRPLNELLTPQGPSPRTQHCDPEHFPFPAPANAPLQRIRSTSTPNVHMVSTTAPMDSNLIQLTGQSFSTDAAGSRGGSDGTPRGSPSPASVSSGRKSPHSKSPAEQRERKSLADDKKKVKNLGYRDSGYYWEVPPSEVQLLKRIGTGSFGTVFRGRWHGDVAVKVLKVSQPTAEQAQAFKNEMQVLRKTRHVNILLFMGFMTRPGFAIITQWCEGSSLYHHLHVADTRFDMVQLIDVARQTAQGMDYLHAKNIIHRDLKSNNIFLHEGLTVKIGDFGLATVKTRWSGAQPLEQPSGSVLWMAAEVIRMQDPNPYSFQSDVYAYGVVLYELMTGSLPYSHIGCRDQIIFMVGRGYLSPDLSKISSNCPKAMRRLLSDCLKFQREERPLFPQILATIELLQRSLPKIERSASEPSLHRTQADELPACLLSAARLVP
UniProt O14727: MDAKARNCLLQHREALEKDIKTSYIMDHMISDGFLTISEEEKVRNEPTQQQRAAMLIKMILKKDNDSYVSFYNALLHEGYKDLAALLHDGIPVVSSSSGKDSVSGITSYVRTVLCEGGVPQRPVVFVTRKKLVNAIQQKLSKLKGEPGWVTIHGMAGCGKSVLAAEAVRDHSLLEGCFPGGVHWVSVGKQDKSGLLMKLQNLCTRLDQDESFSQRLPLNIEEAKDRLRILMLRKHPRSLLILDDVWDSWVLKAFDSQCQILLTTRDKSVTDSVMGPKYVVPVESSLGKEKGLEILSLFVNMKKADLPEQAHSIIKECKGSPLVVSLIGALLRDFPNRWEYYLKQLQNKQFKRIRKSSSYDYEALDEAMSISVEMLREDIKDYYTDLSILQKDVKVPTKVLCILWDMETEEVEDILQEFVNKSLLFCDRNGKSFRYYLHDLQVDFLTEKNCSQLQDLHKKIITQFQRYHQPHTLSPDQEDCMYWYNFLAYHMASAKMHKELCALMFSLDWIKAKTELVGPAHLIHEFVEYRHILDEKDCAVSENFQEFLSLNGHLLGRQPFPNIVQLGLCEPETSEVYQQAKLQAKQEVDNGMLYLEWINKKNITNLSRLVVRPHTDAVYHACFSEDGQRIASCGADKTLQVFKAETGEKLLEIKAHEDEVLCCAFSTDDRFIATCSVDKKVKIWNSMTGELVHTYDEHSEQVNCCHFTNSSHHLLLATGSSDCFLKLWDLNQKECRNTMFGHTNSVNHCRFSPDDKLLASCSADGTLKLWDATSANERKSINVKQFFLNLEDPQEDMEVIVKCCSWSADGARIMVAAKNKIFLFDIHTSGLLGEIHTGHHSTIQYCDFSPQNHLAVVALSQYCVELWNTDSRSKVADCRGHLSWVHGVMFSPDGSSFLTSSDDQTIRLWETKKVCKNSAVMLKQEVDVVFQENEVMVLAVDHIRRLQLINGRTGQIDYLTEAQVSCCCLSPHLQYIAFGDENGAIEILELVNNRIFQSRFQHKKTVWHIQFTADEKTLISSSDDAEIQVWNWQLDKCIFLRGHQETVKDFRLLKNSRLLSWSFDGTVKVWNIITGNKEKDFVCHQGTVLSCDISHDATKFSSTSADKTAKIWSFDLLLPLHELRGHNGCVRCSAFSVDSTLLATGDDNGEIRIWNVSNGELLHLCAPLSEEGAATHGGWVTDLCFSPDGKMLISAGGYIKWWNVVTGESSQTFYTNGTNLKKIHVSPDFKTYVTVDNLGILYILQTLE
UniProt Q9NP61: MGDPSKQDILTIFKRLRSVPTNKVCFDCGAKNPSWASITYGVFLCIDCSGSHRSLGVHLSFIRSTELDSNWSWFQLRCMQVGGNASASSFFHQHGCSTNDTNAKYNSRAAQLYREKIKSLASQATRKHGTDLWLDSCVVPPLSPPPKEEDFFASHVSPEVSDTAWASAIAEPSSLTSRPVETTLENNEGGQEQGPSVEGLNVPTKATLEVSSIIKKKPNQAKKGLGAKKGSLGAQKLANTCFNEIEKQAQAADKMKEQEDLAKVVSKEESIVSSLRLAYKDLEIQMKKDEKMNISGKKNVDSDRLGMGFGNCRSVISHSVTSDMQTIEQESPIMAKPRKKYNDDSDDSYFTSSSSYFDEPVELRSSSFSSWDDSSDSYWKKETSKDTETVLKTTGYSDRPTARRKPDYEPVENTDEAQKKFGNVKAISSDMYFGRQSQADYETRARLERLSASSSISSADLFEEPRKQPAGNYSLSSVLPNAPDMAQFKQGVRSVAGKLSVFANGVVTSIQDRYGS
UniProt Q9HDC9: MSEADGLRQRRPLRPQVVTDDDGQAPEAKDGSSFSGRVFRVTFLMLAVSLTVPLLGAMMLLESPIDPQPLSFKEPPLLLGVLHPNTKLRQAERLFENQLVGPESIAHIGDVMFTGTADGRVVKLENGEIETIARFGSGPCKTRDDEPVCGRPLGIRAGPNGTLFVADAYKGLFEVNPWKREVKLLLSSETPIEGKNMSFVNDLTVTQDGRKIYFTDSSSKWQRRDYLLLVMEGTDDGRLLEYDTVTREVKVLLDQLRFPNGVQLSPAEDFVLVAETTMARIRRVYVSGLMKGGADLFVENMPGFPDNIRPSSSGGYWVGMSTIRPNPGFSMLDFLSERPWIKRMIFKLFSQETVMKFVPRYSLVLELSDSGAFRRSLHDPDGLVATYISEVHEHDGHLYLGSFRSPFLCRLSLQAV
UniProt Q9H0R1: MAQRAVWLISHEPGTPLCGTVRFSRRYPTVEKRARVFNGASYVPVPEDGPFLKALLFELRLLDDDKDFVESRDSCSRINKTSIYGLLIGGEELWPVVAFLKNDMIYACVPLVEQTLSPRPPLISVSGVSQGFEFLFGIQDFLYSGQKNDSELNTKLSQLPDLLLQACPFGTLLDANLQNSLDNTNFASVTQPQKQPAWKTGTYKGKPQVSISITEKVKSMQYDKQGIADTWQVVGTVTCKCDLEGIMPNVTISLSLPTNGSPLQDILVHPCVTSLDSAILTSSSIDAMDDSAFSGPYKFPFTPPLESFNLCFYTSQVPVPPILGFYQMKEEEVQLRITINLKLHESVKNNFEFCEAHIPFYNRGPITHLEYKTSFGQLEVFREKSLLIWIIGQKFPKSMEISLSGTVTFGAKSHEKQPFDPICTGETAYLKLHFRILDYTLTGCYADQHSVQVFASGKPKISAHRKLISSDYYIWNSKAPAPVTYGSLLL
UniProt Q9NRW3: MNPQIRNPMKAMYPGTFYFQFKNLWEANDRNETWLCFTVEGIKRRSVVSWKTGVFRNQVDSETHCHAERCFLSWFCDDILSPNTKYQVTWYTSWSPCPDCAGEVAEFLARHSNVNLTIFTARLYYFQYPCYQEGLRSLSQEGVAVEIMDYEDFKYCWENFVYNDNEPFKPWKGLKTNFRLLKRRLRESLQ
UniProt P02654: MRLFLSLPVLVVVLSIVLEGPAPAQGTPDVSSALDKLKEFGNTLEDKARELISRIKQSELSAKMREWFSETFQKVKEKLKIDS
UniProt P53367: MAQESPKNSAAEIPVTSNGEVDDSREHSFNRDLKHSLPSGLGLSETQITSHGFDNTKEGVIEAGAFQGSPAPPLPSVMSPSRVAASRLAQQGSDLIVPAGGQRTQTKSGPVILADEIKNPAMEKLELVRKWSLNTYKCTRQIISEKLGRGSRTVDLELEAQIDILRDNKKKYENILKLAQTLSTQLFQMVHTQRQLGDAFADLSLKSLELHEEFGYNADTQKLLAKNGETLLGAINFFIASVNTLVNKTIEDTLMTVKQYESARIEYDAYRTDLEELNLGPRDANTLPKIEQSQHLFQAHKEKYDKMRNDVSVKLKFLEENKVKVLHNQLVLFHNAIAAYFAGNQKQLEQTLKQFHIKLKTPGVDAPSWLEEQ
UniProt Q9H2C2: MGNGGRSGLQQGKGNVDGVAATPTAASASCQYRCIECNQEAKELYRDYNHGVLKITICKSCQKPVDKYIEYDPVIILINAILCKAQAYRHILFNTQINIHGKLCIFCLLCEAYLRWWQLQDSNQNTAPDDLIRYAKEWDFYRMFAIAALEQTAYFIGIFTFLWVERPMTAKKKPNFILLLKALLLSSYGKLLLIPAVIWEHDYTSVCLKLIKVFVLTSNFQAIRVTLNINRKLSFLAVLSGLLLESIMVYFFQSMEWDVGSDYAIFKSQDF
UniProt Q8N392: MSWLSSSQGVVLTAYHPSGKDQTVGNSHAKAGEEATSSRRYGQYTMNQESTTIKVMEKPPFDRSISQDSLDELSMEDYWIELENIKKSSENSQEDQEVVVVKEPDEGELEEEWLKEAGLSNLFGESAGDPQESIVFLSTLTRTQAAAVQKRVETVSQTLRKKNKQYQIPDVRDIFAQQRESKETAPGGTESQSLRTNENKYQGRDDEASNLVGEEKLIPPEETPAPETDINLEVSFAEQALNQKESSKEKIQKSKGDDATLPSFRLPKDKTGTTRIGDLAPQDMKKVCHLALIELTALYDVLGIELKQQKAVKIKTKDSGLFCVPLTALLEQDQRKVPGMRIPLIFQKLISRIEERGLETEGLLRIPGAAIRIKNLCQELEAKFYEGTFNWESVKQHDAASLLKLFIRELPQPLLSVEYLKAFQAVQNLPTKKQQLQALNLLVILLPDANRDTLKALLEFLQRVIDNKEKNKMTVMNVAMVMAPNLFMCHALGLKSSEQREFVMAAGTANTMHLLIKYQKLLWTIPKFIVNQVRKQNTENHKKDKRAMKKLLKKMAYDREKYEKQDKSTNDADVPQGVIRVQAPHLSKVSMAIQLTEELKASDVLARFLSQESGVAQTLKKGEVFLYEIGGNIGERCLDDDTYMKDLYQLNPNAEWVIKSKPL
UniProt Q9Y587: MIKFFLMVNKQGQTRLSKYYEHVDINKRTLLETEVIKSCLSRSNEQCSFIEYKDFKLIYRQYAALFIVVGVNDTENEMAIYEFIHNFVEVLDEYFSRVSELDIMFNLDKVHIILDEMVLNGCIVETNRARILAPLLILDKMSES
UniProt Q15041, whole entry, looked up: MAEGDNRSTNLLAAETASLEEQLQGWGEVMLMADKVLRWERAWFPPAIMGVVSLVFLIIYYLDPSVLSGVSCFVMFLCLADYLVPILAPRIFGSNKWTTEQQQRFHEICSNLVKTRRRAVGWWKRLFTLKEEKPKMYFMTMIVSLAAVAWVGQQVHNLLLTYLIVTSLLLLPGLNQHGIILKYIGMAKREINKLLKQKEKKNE

Some of the results follow.

Compound in the first assay: Cc1cc(Nc2cc(N3CCN(C)CC3)nc(Sc3ccc(NC(=O)C4CC4)cc3)n2)n[nH]1 [tozasertib]
Kind of assay: log2 fold change, soluble protein after heating vs DMSO (PISA); higher = thermal stabilisation; K562 lysate, 10 uM; active = over 0.2 and 3.5 SD of the protein, either way, in both replicates (recomputed). The method, boiled down: (§1)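 To prepare the extract, K562 pellets were dounce-homogenised in PBS pH 7.4 with 1 mM MgCl2, giving crude material at 1 mg/mL protein. This was treated with 10 μM compound for 30 min, then heated in aliquots for 3 min over 48°C-58°C before pooling and addition of NP-40 to 0.5% at 4°C. Centrifugation at 21,000xg for 90 min left soluble protein in the supernatant, which TMTpro 16plex LC-MS/MS quantified with equalised channel sums. Results are log-two fold changes in thermal stability compared with solvent controls, from duplicates.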
Regarding ARID4B (UniProt Q4LE39), the log2 fold change is inactive: -0.062.

For the target ARAF (UniProt P10398), the log2 fold change is inactive: -0.007.

With APAF1 (UniProt O14727), the log2 fold change was inactive: -0.025.

For ARFGAP3 (UniProt Q9NP61), the log2 fold change is inactive: -0.006.

Take ARHGAP21 (UniProt Q5T5U3): the log2 fold change is inactive: -0.092.

Take APMAP (UniProt Q9HDC9): the log2 fold change was inactive: 0.028.

For AP5M1 (UniProt Q9H0R1), the log2 fold change was inactive: 0.029.

Take APOBEC3C (UniProt Q9NRW3): the log2 fold change was inactive: -0.055.

For the target APOC1 (UniProt P02654), the log2 fold change was inactive: 0.023.

On to ARFIP1 (UniProt P53367), for which the log2 fold change is inactive: 0.015.

Compound in another assay: Cc1ccc(-n2nc(C(C)(C)C)cc2NC(=O)Nc2ccc(OCCN3CCOCC3)c3ccccc23)cc1 [doramapimod]
Described as above. The method, boiled down:
as §1
As for ASAP1 isoform 2 (UniProt Q9ULH1), the log2 fold change was inactive: -0.001.

With APOBEC3G (UniProt Q9HC16), the log2 fold change is inactive: -0.015.

As for AP5Z1 (UniProt O43299), the log2 fold change is inactive: -0.004.

In the case of ARIH1 (UniProt Q9Y4X5), the log2 fold change is inactive: 0.028.

ARHGEF10 (UniProt O15013): the log2 fold change is inactive: 0.001.

For the target APOOL (UniProt Q6UXV4), the log2 fold change is inactive: -0.018.

With ARFGEF2 (UniProt Q9Y6D5), the log2 fold change is inactive: 0.011.

Turning to ARRDC1 (UniProt Q8N5I2), the log2 fold change is inactive: 0.059.

In the case of ARID2 (UniProt Q68CP9), the log2 fold change was inactive: -0.001.

ARV1 (UniProt Q9H2C2): the log2 fold change is inactive: -0.129.

Take APTX (UniProt Q7Z2E3): the log2 fold change is inactive: 0.001.

Take APIP (UniProt Q96GX9): the log2 fold change was inactive: -0.004.

ARMCX3 (UniProt Q9UH62): the log2 fold change was inactive: -0.003.

For the target ARSA (UniProt P15289), the log2 fold change is inactive: 0.067.

As to ARHGAP18 (UniProt Q8N392), the log2 fold change is inactive: 0.078.

Regarding APLP2 (UniProt Q06481), the log2 fold change is inactive: 0.008.

For the target AP4S1 (UniProt Q9Y587), the log2 fold change is inactive: -0.043.

Turning to ARL6IP1 (UniProt Q15041), the log2 fold change is inactive: 0.004.

ARHGAP5 (UniProt Q13017): the log2 fold change was inactive: 0.077.

Regarding APPL1 (UniProt Q9UKG1), the log2 fold change was inactive: 0.052.

Take ARID1B isoform 3 (UniProt Q8NFD5): the log2 fold change was inactive: -0.038.

With ARHGEF11 isoform 2 (UniProt O15085), the log2 fold change is inactive: -0.002.

As for ARFGEF1 (UniProt Q9Y6D6), the log2 fold change is inactive: -0.015.

For the target ARID4B (UniProt Q4LE39), the log2 fold change is inactive: 0.022.

Take ARAF (UniProt P10398): the log2 fold change was inactive: 0.006.

For the target APAF1 (UniProt O14727), the log2 fold change is inactive: 0.05.

On to ARFGAP3 (UniProt Q9NP61), for which the log2 fold change is inactive: 0.131.

Take ARHGAP21 (UniProt Q5T5U3): the log2 fold change is inactive: 0.013.

Consider APMAP (UniProt Q9HDC9), for which the log2 fold change is inactive: -0.016.

Regarding AP5M1 (UniProt Q9H0R1), the log2 fold change is inactive: 0.008.

In the case of APOBEC3C (UniProt Q9NRW3), the log2 fold change was inactive: 0.1.

As for APOC1 (UniProt P02654), the log2 fold change was inactive: -0.005.

On to ARFIP1 (UniProt P53367), for which the log2 fold change is inactive: -0.004.

Compound in another assay: Cc1ccc(NC(=O)c2ccc(CN3CC[C@H](N(C)C)C3)c(C(F)(F)F)c2)cc1Nc1nccc(-c2cncnc2)n1 [bafetinib]
The description is as above. The method in brief: as §1
ASAP1 isoform 2 (UniProt Q9ULH1): the log2 fold change is inactive: 0.006.

For APOBEC3G (UniProt Q9HC16), the log2 fold change is inactive: 0.084.

With AP5Z1 (UniProt O43299), the log2 fold change is inactive: 0.031.

On to ARIH1 (UniProt Q9Y4X5), for which the log2 fold change was inactive: -0.036.

With ARHGEF10 (UniProt O15013), the log2 fold change is inactive: -0.419.

As for APOOL (UniProt Q6UXV4), the log2 fold change was inactive: 0.006.

Take ARFGEF2 (UniProt Q9Y6D5): the log2 fold change is inactive: -0.06.

ARRDC1 (UniProt Q8N5I2): the log2 fold change is inactive: 0.002.

In the case of ARID2 (UniProt Q68CP9), the log2 fold change is inactive: 0.013.

In the case of ARV1 (UniProt Q9H2C2), the log2 fold change is inactive: -0.117.

As to APTX (UniProt Q7Z2E3), the log2 fold change is inactive: -0.05.

For APIP (UniProt Q96GX9), the log2 fold change was inactive: 0.057.

Consider ARMCX3 (UniProt Q9UH62), for which the log2 fold change was inactive: -0.044.

Regarding ARSA (UniProt P15289), the log2 fold change was inactive: -0.013.

Regarding ARHGAP18 (UniProt Q8N392), the log2 fold change was inactive: -0.04.

In the case of APLP2 (UniProt Q06481), the log2 fold change was inactive: -0.084.

AP4S1 (UniProt Q9Y587): the log2 fold change was inactive: 0.004.

With ARL6IP1 (UniProt Q15041), the log2 fold change was inactive: 0.254.

In the case of ARHGAP5 (UniProt Q13017), the log2 fold change is inactive: -0.007.

With APPL1 (UniProt Q9UKG1), the log2 fold change is inactive: -0.029.

Take ARID1B isoform 3 (UniProt Q8NFD5): the log2 fold change was inactive: -0.046.

Consider ARHGEF11 isoform 2 (UniProt O15085), for which the log2 fold change was inactive: 0.008.

In the case of ARFGEF1 (UniProt Q9Y6D6), the log2 fold change was inactive: -0.03.

With ARID4B (UniProt Q4LE39), the log2 fold change is inactive: 0.002.

For the target ARAF (UniProt P10398), the log2 fold change is inactive: -0.047.

Take APAF1 (UniProt O14727): the log2 fold change is inactive: 0.02.

With ARFGAP3 (UniProt Q9NP61), the log2 fold change is inactive: -0.028.

As for ARHGAP21 (UniProt Q5T5U3), the log2 fold change is inactive: -0.133.

Regarding APMAP (UniProt Q9HDC9), the log2 fold change was inactive: 0.014.

On to AP5M1 (UniProt Q9H0R1), for which the log2 fold change is inactive: -0.036.

For the target APOBEC3C (UniProt Q9NRW3), the log2 fold change was inactive: -0.023.

As to APOC1 (UniProt P02654), the log2 fold change is inactive: 0.034.

In the case of ARFIP1 (UniProt P53367), the log2 fold change was inactive: -0.025.
